PubChem BioAssay AID1159601 – NIAID – 2016
Purpose: 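Knock-down of 126 canonical TLR pathway genes, testing the TNF response to a TLR2 ligand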 (primary screen). Cells: human THP-1 reporter cells differentiated with PMA into macrophage-like cells. Knock-down reagent: single siRNA against human genes. Timing: ligand added 4 hours before read-out; cells assayed 48 to 72 hours after siRNA transfection. Treatment: Pam3CSK4 (TLR2 ligand) for 4 hours; dose not given. Measurement: 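Firefly over renilla luciferase ratio from a TNF promoter reporter after 4 h Pam3CSK4, plate scaled by median and MAD, robust z-score versus negative controls, replicate mean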. Direction: TNF reporter z-score: higher = stronger TNF promoter reporter activity. Rule for the call: 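The depositor grades each siRNA by the size of its mean z-score in either direction, with steps at 1, 1.5, 2 and 2.5; active calls sit near -1.5 or below, or near 1.5 or above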. Calls: active = clear change (up or down); inactive = little change.
The whole screen tested 756 reagents; this is a random part of them. 143 of them (19%) were called active. 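Calls include both lowered and raised reporter signal; each row is a single siRNA, not a gene summary; Pam3CSK4 dose not stated.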 The numbers tell different reagents against one gene apart. The record does not give: the amount of reagent.

| Target gene | reagent no. | TNF reporter z-score, replicate mean | call |
| --- | --- | --- | --- |
| STAT1 (GeneID 6772) | 1 | 0.0171 | inactive |
| STAT1 (GeneID 6772) | 2 | -0.721 | inactive |
| STAT1 (GeneID 6772) | 3 | 0.412 | inactive |
| STAT1 (GeneID 6772) | 4 | 0.18 | inactive |
| STAT1 (GeneID 6772) | 5 | 0.311 | inactive |
| STAT1 (GeneID 6772) | 6 | 0.928 | inactive |
| DUSP2 (GeneID 1844) | 1 | 0.132 | inactive |
| DUSP2 (GeneID 1844) | 2 | 0.184 | inactive |
| DUSP2 (GeneID 1844) | 3 | -2.81 | active |
| DUSP2 (GeneID 1844) | 4 | 0.154 | inactive |
| DUSP2 (GeneID 1844) | 5 | 0.209 | inactive |
| DUSP2 (GeneID 1844) | 6 | 0.0936 | inactive |
| RIPK1 (GeneID 8737) | 1 | -1.1 | inactive |
| RIPK1 (GeneID 8737) | 2 | 0.141 | inactive |
| RIPK1 (GeneID 8737) | 3 | 1.09 | inactive |
| RIPK1 (GeneID 8737) | 4 | -0.94 | inactive |
| RIPK1 (GeneID 8737) | 5 | -1.04 | inactive |
| RIPK1 (GeneID 8737) | 6 | -0.467 | inactive |
| CHUK (GeneID 1147) | 1 | -0.652 | inactive |
| CHUK (GeneID 1147) | 2 | -0.766 | inactive |
| CHUK (GeneID 1147) | 3 | -0.849 | inactive |
| CHUK (GeneID 1147) | 4 | -0.625 | inactive |
| CHUK (GeneID 1147) | 5 | -0.557 | inactive |
| CHUK (GeneID 1147) | 6 | 0.363 | inactive |
| RAC1 (GeneID 5879) | 1 | -0.334 | inactive |
| RAC1 (GeneID 5879) | 2 | 0.58 | inactive |
| RAC1 (GeneID 5879) | 3 | 0.0679 | inactive |
| RAC1 (GeneID 5879) | 4 | -1.11 | inactive |
| RAC1 (GeneID 5879) | 5 | 1.33 | inactive |
| RAC1 (GeneID 5879) | 6 | -0.925 | inactive |
| SP1 (GeneID 6667) | 1 | -3.23 | active |
| SP1 (GeneID 6667) | 2 | -1.57 | active |
| SP1 (GeneID 6667) | 3 | 0.344 | inactive |
| SP1 (GeneID 6667) | 4 | 1.5 | active |
| SP1 (GeneID 6667) | 5 | 0.407 | inactive |
| SP1 (GeneID 6667) | 6 | -1.3 | inactive |
| IL33R (GeneID 9173) | 1 | -0.564 | inactive |
| IL33R (GeneID 9173) | 2 | -1.26 | inactive |
| IL33R (GeneID 9173) | 3 | -0.321 | inactive |
| IL33R (GeneID 9173) | 4 | -0.0201 | inactive |
| IL33R (GeneID 9173) | 5 | -2.7 | active |
| IL33R (GeneID 9173) | 6 | -0.0956 | inactive |
| EGR2 (GeneID 1959) | 1 | -1.44 | inactive |
| EGR2 (GeneID 1959) | 2 | -1.25 | inactive |
| EGR2 (GeneID 1959) | 3 | -1.69 | active |
| EGR2 (GeneID 1959) | 4 | -1.41 | inactive |
| EGR2 (GeneID 1959) | 5 | -0.823 | inactive |
| EGR2 (GeneID 1959) | 6 | -3.51 | active |

Individual results from above:
Result of DUSP2 (GeneID 1844) #5 in “call”: inactive
RIPK1 (GeneID 8737) #2, call: inactive
Value for CHUK (GeneID 1147) #2 under “call”: inactive
Entry of EGR2 (GeneID 1959) #3 in “call”: active
STAT1 (GeneID 6772) #6, TNF reporter z-score, replicate mean → 0.928
For “call”, RAC1 (GeneID 5879) #2 reads inactive
